Results as given in paper PMC7819943, “Rice protein-binding microarrays: a tool to detect cis-acting elements near promoter regions in rice”.
The other results are listed elsewhere or left out.

Amino acid sequences for entries named in this document (tags omitted).
UniProt Q0JBA9, entry or part of it: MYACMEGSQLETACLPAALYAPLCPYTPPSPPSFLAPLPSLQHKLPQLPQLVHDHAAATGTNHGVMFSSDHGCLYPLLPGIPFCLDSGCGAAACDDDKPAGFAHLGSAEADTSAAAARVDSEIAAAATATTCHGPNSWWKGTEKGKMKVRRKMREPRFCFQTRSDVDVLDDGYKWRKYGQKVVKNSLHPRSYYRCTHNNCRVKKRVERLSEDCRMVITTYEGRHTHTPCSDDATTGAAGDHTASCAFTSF

target: OsWRKY34 (Oryza sativa, UniProt Q0JBA9 1-250); assay: protein-binding microarray (RPBM); PBS, 2% BSA, 51.3 ng/ul salmon testes DNA, 50 uM zinc acetate, 200 nM TF, 25 C, 1 h; high values mean tight binding; settings: protein: recombinant; tags: N-terminal polyhistidine and DsRed monomer fusion (pET32a); label: CyDye5-dUTP incorporated in the synthesized complementary strand; 3' TTTTT single-stranded linker to array surface; dsDNA, one strand shown
In short: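 The binding signal is fluorescence intensity per array feature (arbitrary units). Readings came from an Axon 4000B scanner after a washed, 2% BSA-blocked, double-stranded custom Agilent array had been incubated for 1 h at 25 °C with 200 nM protein and 50 µM zinc acetate. The protein was a Ni–NTA-purified transcription factor fused N-terminally to polyhistidine and DsRed, expressed in E. coli BL21-CodonPlus.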

Sequence | binding signal
ATGTAGATCTTGTAGGTCTCGACGCTCTTCTTCGCCTTCTCGGAGTCACCTAGTGCAG | 9000 fluorescence intensity (a.u.)
ACGCATTCATGACACGTACCTGCACTAGAATTCCCCTTCCCGGAGTCACCTAGTGCAG | 8170 fluorescence intensity (a.u.)
ACTATCTTAGCCATTCCAACGCCGTCTTTCCTCGGTCCTCCGGAGTCACCTAGTGCAG | 12500 fluorescence intensity (a.u.)
TAGTTTGTTTCATTTTTCGCACGCACGCTTCTCGAACTACCGGAGTCACCTAGTGCAG | 8220 fluorescence intensity (a.u.)
TTTTGTTTCTTTTCTTACCCTAATCTCTCTCACTGGCTCGCGGAGTCACCTAGTGCAG | 8460 fluorescence intensity (a.u.)
ATACCTATCGATTCCGTATTCTCCTCTGTTCCGCTCTCTCCGGAGTCACCTAGTGCAG | 10200 fluorescence intensity (a.u.)
TATCATACTGTTTCTTTTCTATGGATAGAACATTTTATTCCGGAGTCACCTAGTGCAG | 8470 fluorescence intensity (a.u.)
TTTACGCTGTCTCTCTTCTCGTTAACCTGCTCTACCAATCCGGAGTCACCTAGTGCAG | 8310 fluorescence intensity (a.u.)
ACTCCACATGTATCAGTTATAGCTCTGTACTTTAGAAAGACGGAGTCACCTAGTGCAG | 9100 fluorescence intensity (a.u.)
CATCTCAACCAATTACAACCATCCCATTTAATTCCATCCTCGGAGTCACCTAGTGCAG | 8650 fluorescence intensity (a.u.)
TCTTCTCCACTTACTTGTCCATCTTCTTCTCCTCCTCCTACGGAGTCACCTAGTGCAG | 8780 fluorescence intensity (a.u.)
TAAGTATGCACGGTCACAGCTGTTGTTTGTCGAGCCAGCACGGAGTCACCTAGTGCAG | 9520 fluorescence intensity (a.u.)
ATCTCGTTATGGGTTATGGGCGTTATGGTATGATTAATTACGGAGTCACCTAGTGCAG | 12400 fluorescence intensity (a.u.)
GTTAGTTGTCACTGAACCCTACATTGTCATTTTCTTTTCACGGAGTCACCTAGTGCAG | 8870 fluorescence intensity (a.u.)
GAGTTTGTTCTGTTTTCGCCGGTAGATCTCCACGTTCCTTCGGAGTCACCTAGTGCAG | 8890 fluorescence intensity (a.u.)
ACTACTACTACTAGTATTTTCTTTGACTTTTCCTGCACCCCGGAGTCACCTAGTGCAG | 10500 fluorescence intensity (a.u.)
CGACTGGTGCTTTTATCTTCACAACTGCGCGTCTTCACTACGGAGTCACCTAGTGCAG | 13100 fluorescence intensity (a.u.)
ATCTGCATGTTCGCCCTTCTTCATACAATGTCTTGCTTGTCGGAGTCACCTAGTGCAG | 8060 fluorescence intensity (a.u.)
GCCCTACTCTACCCCTAGCCCTCCGCGCGGCTGCCGTCGACGGAGTCACCTAGTGCAG | 8970 fluorescence intensity (a.u.)
CACAGCGACCCACCACCCTTCTTTCTGCCATGCCTTACATCGGAGTCACCTAGTGCAG | 10100 fluorescence intensity (a.u.)
ACTTCTTTTCTCATGCACAGAGGCAGAACAGCCATGGCTGCGGAGTCACCTAGTGCAG | 8310 fluorescence intensity (a.u.)

Sequence | binding signal
ATGCTTCACCTCGTCGCCCTAAATTTATCACCCAGAGGCGCGGAGTCACCTAGTGCAG | 8100 fluorescence intensity (a.u.)
GTATGCATGCGGCTATAAACGTTATGTTTATGTTGTGTTTCGGAGTCACCTAGTGCAG | 9020 fluorescence intensity (a.u.)
TTCCTAGTGCCATCCATACCTTCTCTAAATTAATCCGATTCGGAGTCACCTAGTGCAG | 8480 fluorescence intensity (a.u.)
ACTCCGTATCCTGAACTTACTAGTATTAGTTTCCAGTTTTCGGAGTCACCTAGTGCAG | 8060 fluorescence intensity (a.u.)
ACAACGGTTTGTTATTGTCTTGTCGGCTTCTACAACACAACGGAGTCACCTAGTGCAG | 8600 fluorescence intensity (a.u.)
ATCCTACCTTACCTCTCTCTGGCAACCGGGTCCCACCTAACGGAGTCACCTAGTGCAG | 12100 fluorescence intensity (a.u.)
GTCTCGCGATTTCCATACAAACTGTGCAATTAGTTTTTTTCGGAGTCACCTAGTGCAG | 11200 fluorescence intensity (a.u.)
TGTTCCCCTTCTGCTATCTCAACCGTGTCTGTCTTATCATCGGAGTCACCTAGTGCAG | 9570 fluorescence intensity (a.u.)
ACATCAAAGCTTTCCTACACACACAACCTTCCAATGTTTCCGGAGTCACCTAGTGCAG | 9160 fluorescence intensity (a.u.)
GATGTTGTTTCCTTTCTTTGGTGGTTTGGTTTGGTTGGGTCGGAGTCACCTAGTGCAG | 29300 fluorescence intensity (a.u.)
ACCCACCTACCAAATTTATTTACTGTAGACGCAATTGACTCGGAGTCACCTAGTGCAG | 8770 fluorescence intensity (a.u.)
TTGATGTAGTATTCTTTTAAGGTTGGATGGTTGGATTTGACGGAGTCACCTAGTGCAG | 10000 fluorescence intensity (a.u.)
ATATTGTTTTGATATCATAAGTAGTTTTGACTTTTTTTTACGGAGTCACCTAGTGCAG | 11000 fluorescence intensity (a.u.)
GATGATGGGACGTGGGGTGGGATCGGAAGTAGGAAAGTTGCGGAGTCACCTAGTGCAG | 13400 fluorescence intensity (a.u.)
CACCGAGTTCCCCGCCCCAAACTCCGCCCCGCTCTCTCCGCGGAGTCACCTAGTGCAG | 8640 fluorescence intensity (a.u.)
CCCACCCGCCACCACCGCGCGCCGTCGACACTCGGCGACCCGGAGTCACCTAGTGCAG | 8910 fluorescence intensity (a.u.)
TGCCATCTCCTTCGCCATTGGAGCTCACCACACACTCGCTCGGAGTCACCTAGTGCAG | 9660 fluorescence intensity (a.u.)
TTCTGATTTCTGCCATTGATTATGATTTCAGCATGTTTTCCGGAGTCACCTAGTGCAG | 10200 fluorescence intensity (a.u.)
GAGTTCCGACGGAAACTGCCCTTATCATTTCCGATTCCGTCGGAGTCACCTAGTGCAG | 9820 fluorescence intensity (a.u.)
TGGTATATGTCATATCTGGTTTTAGATTTATTTTTTGTGACGGAGTCACCTAGTGCAG | 8890 fluorescence intensity (a.u.)
AAACTGGGCCATATCGGTTGGTTTTTGCTCTCTACGTCTCCGGAGTCACCTAGTGCAG | 9280 fluorescence intensity (a.u.)

Sequence | binding signal
TACGATCTCATCATGCCCCATCTGCAATAAGTCAATTCCGCGGAGTCACCTAGTGCAG | 8090 fluorescence intensity (a.u.)
GATTCCAAATTTCACAACAAGCATATAACTTTCACGAGACCGGAGTCACCTAGTGCAG | 8290 fluorescence intensity (a.u.)
TTTATACATATTCAGTGGTACTCTCTCTATGCCATAATATCGGAGTCACCTAGTGCAG | 8460 fluorescence intensity (a.u.)
TCCTTGTTTCTTTGTGGAAGCCTCTTCTGCTGCTGCCGTCCGGAGTCACCTAGTGCAG | 9850 fluorescence intensity (a.u.)
TTTTTGCAGCATCAATTGAAAGTTCATTAGTCCTCTTTGTCGGAGTCACCTAGTGCAG | 8120 fluorescence intensity (a.u.)
CCATGTGTAACACTATCATCATCAACCATGCAATCCATCTCGGAGTCACCTAGTGCAG | 8780 fluorescence intensity (a.u.)
GTATATTCAGGCCTGGTTTAGTCGCCCAAAATTTTTTTCCCGGAGTCACCTAGTGCAG | 11600 fluorescence intensity (a.u.)
CCGCCGAGTCACTGCTCTCGTTCTTATCCACACTGCCCGACGGAGTCACCTAGTGCAG | 9120 fluorescence intensity (a.u.)
CCCGGACTTTCTTCCCCTTGGGTCCAGTTGCACCTCTTCGCGGAGTCACCTAGTGCAG | 8780 fluorescence intensity (a.u.)
CCTCGCCATCACCGCCATTGCCGCCGCCGCCGCCGCCGCCCGGAGTCACCTAGTGCAG | 14100 fluorescence intensity (a.u.)
CCGGTCCGGTCACCGCCTGCCTCGTCGTCGCCGGCGCTGACGGAGTCACCTAGTGCAG | 9200 fluorescence intensity (a.u.)
CTCATCTCACCCCTTTCTTTGCCTTGTTGCTTTGGTTGGACGGAGTCACCTAGTGCAG | 9030 fluorescence intensity (a.u.)
TTTAATTCCGAATTTCTATTTTTTTTTCTTAATTGTATTTCGGAGTCACCTAGTGCAG | 8050 fluorescence intensity (a.u.)
CGAATTGAGGCCCAAATACTTGGGTGGGGTGGAGGGCCGACGGAGTCACCTAGTGCAG | 12300 fluorescence intensity (a.u.)
AACCTTCCATTTTGTGCTATCTTTTGTTCTTTTGTGTGCTCGGAGTCACCTAGTGCAG | 8610 fluorescence intensity (a.u.)
CTATTTAACCCCAACAACGCTCGTACCATCACGGCATCATCGGAGTCACCTAGTGCAG | 10300 fluorescence intensity (a.u.)
CGCACGCCGCACGCTGGCCACCCACCTCCACCTCCGCCGGCGGAGTCACCTAGTGCAG | 10800 fluorescence intensity (a.u.)
AAGTCCAAATAAACCATCACTCTTTTTGTTTGACTTTTTTCGGAGTCACCTAGTGCAG | 11400 fluorescence intensity (a.u.)
TTTTTTCAATATTGCTTATTTTTAATTTCGAATTCCTACTCGGAGTCACCTAGTGCAG | 10600 fluorescence intensity (a.u.)
TATAATTCATTTGGTTAATGTATCATTAACTTGTGTCAATCGGAGTCACCTAGTGCAG | 8080 fluorescence intensity (a.u.)
CTCTCTCTCTCTCTCTCTCATACCTAAAAGTTATTTTAATCGGAGTCACCTAGTGCAG | 8250 fluorescence intensity (a.u.)

Part of the list above, comma-delimited:
Sequence,binding signal
CCATGTGTAACACTATCATCATCAACCATGCAATCCATCTCGGAGTCACCTAGTGCAG,8780 fluorescence intensity (a.u.)
CCTCGCCATCACCGCCATTGCCGCCGCCGCCGCCGCCGCCCGGAGTCACCTAGTGCAG,14100 fluorescence intensity (a.u.)
TTTAATTCCGAATTTCTATTTTTTTTTCTTAATTGTATTTCGGAGTCACCTAGTGCAG,8050 fluorescence intensity (a.u.)
AACCTTCCATTTTGTGCTATCTTTTGTTCTTTTGTGTGCTCGGAGTCACCTAGTGCAG,8610 fluorescence intensity (a.u.)

Carrying on:

Sequence | binding signal
CTACGGCACCTACTAACTCCTTGTCTGCTTCCGCGCGCCACGGAGTCACCTAGTGCAG | 10500 fluorescence intensity (a.u.)
AACTTACATTGTAAATACACTAAAATTACATATGTAATTTCGGAGTCACCTAGTGCAG | 9910 fluorescence intensity (a.u.)
AAGAGGAGAGATCATTGTTGACGGGTTATACCCGACCGCGCGGAGTCACCTAGTGCAG | 9020 fluorescence intensity (a.u.)
CGATGTGTGCTTTAACTTTCGGATCGATGCTTATTTATCACGGAGTCACCTAGTGCAG | 8380 fluorescence intensity (a.u.)
CCCAGCCTTCCCCTCACTGACAGCCCGGGCCCACCGCTCACGGAGTCACCTAGTGCAG | 8290 fluorescence intensity (a.u.)
CGTTTCATATTATAAGACTTTCTAGCATTGCCCATATTTACGGAGTCACCTAGTGCAG | 9360 fluorescence intensity (a.u.)
AAGAGAGAGAGAGATGGAGTGGCTGCTTTTGTTTCCTCCTCGGAGTCACCTAGTGCAG | 9090 fluorescence intensity (a.u.)
GGTACTTGTGGTCTTGAAGGTTGTGCTTTCCATCCAATTGCGGAGTCACCTAGTGCAG | 12900 fluorescence intensity (a.u.)
TCCATAGTCTTTGCGCTTTTTGCTTAGAGCAAGTTTAATACGGAGTCACCTAGTGCAG | 8390 fluorescence intensity (a.u.)
GGCACGTACACAGTCAGATCCACCTTGGCAAGCTATAATCCGGAGTCACCTAGTGCAG | 8530 fluorescence intensity (a.u.)
TGCAGGTTGCTCGGTTGTTTTGTGTAGTGTAGATGTGTGACGGAGTCACCTAGTGCAG | 10300 fluorescence intensity (a.u.)
ATCTGTATCTTTGTTTATTTTTTTTATTTTTCTCCCATTTCGGAGTCACCTAGTGCAG | 10600 fluorescence intensity (a.u.)
TGACGAGAGCGCACAACACATCCCACATACTGGCGCACACCGGAGTCACCTAGTGCAG | 8910 fluorescence intensity (a.u.)
TTCTTATTTGCAAGTATACTGTTTTGCTTTTCTCTCTAATCGGAGTCACCTAGTGCAG | 9690 fluorescence intensity (a.u.)
AGAGTTGTTTGATGTTATTTTGTCCTATCTCTAACAGATTCGGAGTCACCTAGTGCAG | 10900 fluorescence intensity (a.u.)
TTGTCAATCTGTTTCTATTCTGCTGTCTATGCTCTGCATTCGGAGTCACCTAGTGCAG | 9040 fluorescence intensity (a.u.)
GCTGCCTCCGCCTCGCGCCGTCGCCATCGTCGTCCCCGCCCGGAGTCACCTAGTGCAG | 9500 fluorescence intensity (a.u.)
TCTTCGTCAATTTATTCTTCTGAGTTGCTAACATGTAACCCGGAGTCACCTAGTGCAG | 10800 fluorescence intensity (a.u.)
CACCGTTGGTTCCTTTCACACCCGTCTACAAGTGTTCAGTCGGAGTCACCTAGTGCAG | 8660 fluorescence intensity (a.u.)
ACAACCCTTTCATTACCAGTCATCTCCTCCCACACTCAGCCGGAGTCACCTAGTGCAG | 11100 fluorescence intensity (a.u.)
ACTCATCAAGATCTATAACTTTTATTTGGGTCATTTCTTCCGGAGTCACCTAGTGCAG | 11900 fluorescence intensity (a.u.)

Three entries from above in a different format:
AACTTACATTGTAAATACACTAAAATTACATATGTAATTTCGGAGTCACCTAGTGCAG
  binding signal = 9910 fluorescence intensity (a.u.)
AAGAGGAGAGATCATTGTTGACGGGTTATACCCGACCGCGCGGAGTCACCTAGTGCAG
  binding signal = 9020 fluorescence intensity (a.u.)
CGATGTGTGCTTTAACTTTCGGATCGATGCTTATTTATCACGGAGTCACCTAGTGCAG
  binding signal = 8380 fluorescence intensity (a.u.)
